Common to all, as to test: two-hybrid
Assay [1] addresses CBX5 (yeast two-hybrid fusion) (human) (UniProt P45973).
Assay [2] deals with RING1B (yeast two-hybrid fusion) (human) (UniProt Q99496).
The target of assay [3] is T1, CBX8 (yeast two-hybrid fusion) (human) (UniProt Q9HC52).
T1 sequence: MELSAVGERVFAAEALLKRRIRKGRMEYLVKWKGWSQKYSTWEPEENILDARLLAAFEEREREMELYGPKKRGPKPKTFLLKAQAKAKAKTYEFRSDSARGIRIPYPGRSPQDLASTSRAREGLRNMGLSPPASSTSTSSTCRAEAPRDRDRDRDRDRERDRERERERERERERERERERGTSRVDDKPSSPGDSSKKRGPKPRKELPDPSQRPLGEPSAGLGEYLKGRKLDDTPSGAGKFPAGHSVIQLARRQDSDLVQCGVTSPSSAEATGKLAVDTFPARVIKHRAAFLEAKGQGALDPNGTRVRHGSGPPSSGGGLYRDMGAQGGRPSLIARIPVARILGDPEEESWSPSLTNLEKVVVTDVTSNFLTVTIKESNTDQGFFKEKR

The chains behind the UniProt entries cited, without tags or fusion partners. Where a name states a change or a piece, a line headed by the entry shows the natural chain unless it says otherwise. Residues count along the entry.
UniProt P45973: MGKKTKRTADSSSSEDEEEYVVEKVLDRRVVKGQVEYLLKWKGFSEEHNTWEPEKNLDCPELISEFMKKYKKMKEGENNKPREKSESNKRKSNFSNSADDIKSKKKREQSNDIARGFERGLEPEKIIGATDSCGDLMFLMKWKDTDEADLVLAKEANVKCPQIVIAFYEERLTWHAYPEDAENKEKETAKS
UniProt Q99496: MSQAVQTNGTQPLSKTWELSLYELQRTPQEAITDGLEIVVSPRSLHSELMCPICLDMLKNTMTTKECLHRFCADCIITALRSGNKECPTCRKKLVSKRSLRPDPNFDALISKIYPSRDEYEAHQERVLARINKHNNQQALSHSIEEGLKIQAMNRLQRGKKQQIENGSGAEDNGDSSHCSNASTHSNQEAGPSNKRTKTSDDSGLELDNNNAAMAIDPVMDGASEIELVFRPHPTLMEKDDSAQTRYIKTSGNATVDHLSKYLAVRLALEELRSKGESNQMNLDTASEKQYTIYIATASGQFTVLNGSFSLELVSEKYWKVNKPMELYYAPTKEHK
UniProt O75530: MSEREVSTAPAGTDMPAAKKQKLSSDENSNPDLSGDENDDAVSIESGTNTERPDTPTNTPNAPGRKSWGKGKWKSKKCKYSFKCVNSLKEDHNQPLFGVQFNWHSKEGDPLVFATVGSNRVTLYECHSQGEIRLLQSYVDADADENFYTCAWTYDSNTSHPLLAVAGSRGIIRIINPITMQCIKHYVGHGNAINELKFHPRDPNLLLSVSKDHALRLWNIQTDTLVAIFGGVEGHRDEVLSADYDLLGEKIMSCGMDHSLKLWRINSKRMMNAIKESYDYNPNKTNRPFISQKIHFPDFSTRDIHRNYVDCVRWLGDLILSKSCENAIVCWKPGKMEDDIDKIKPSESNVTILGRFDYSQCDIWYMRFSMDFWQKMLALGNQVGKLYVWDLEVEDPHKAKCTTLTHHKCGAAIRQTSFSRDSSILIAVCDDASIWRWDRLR
EED amino acids 142-200 (yeast two-hybrid fusion): residues 142-200 of O75530
UniProt P83916: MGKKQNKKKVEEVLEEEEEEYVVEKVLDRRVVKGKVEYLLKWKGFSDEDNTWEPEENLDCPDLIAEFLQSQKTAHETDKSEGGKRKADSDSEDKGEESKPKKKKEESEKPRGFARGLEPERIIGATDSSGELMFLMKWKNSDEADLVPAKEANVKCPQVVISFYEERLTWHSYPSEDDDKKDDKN
UniProt Q13185: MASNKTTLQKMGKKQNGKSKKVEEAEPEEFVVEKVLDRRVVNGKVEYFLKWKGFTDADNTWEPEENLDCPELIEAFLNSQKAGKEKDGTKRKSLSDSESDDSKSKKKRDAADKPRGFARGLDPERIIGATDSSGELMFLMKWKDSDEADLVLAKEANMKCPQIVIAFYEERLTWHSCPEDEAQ

The target in assay [4] is EED amino acids 142-200 (yeast two-hybrid fusion) (human) (UniProt O75530).
The target of assay [5] is T2, CBX8 amino acids 311-350 (yeast two-hybrid fusion) (human) (UniProt Q9HC52).
T2 sequence: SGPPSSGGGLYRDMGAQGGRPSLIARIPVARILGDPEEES

For assay [6], the target named is CBX7 (yeast two-hybrid fusion) (human) (UniProt O95931).
In assay [7] the target is EED (yeast two-hybrid fusion) (human) (UniProt O75530).
In assay [8] the target is T3, CBX7 amino acids 151-210 (yeast two-hybrid fusion) (human) (UniProt O95931).
T3 sequence: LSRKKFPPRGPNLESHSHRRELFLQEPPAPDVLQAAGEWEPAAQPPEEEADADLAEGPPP

The target in assay [9] is CBX1 (yeast two-hybrid fusion) (human) (UniProt P83916).
Assay [10] deals with CBX3 (yeast two-hybrid fusion) (human) (UniProt Q13185).

These are yes or no findings as the source states them, for the method shown. Some results given as binding are weak or reduced against the parent protein; the word gives no strength. Tags and fused reporters may be left off the sequences shown.

B1: TEX10 (yeast two-hybrid fusion) (protein, UniProt Q9NXF1 1-929)
chain: MTKKRKRQHDFQKVKLKVGKKKPKLQNATPTNFKTKTIHLPEQLKEDGTLPTNNRKLNIKDLLSQMHHYNAGVKQSALLGLKDLLSQYPFIIDAHLSNILSEVTAVFTDKDANVRLAAVQLLQFLAPKIRAEQISPFFPLVSAHLSSAMTHITEGIQEDSLKVLDILLEQYPALITGRSSILLKNFVELISHQQLSKGLINRDRSQSWILSVNPNRRLTSQQWRLKVLVRLSKFLQALADGSSRLRESEGLQEQKENPHATSNSIFINWKEHANDQQHIQVYENGGSQPNVSSQFRLRYLVGGLSGVDEGLSSTENLKGFIEIIIPLLIECWVEAVPPQLATPVGNGIEREPLQVMQQVLNIISLLWKLSKQQDETHKLESWLRKNYLIDFKHHFMSRFPYVLKEITKHKRKEPNKSIKHCTVLSNNIDHLLLNLTLSDIMVSLANASTLQKDCSWIEMIRKFVTETLEDGSRLNSKQLNRLLGVSWRLMQIQPNREDTETLIKAVYTLYQQRGLILPVRTLLLKFFSKIYQTEELRSCRFRYRSKVLSRWLAGLPLQLAHLGSRNPELSTQLIDIIHTAAARANKELLKSLQATALRIYDPQEGAVVVLPADSQQRLVQLVYFLPSLPADLLSRLSRCCIMGRLSSSLAAMLIGILHMRSSFSGWKYSAKDWLMSDVDYFSFLFSTLTGFSKEELTWLQSLRGVPHVIQTQLSPVLLYLTDLDQFLHHWDVTEAVFHSLLVIPARSQNFDILQSAISKHLVGLTVIPDSTAGCVFGVICKLLDHTCVVSETLLPFLASCCYSLLYFLLTIEKGEAEHLRKRDKLWGVCVSILALLPRVLRLMLQSLRVNRVGPEELPVVGQLLRLLLQHAPLRTHMLTNAILVQQIIKNITTLKSGSVQEQWLTDLHYCFNVYITGHPQGPSALATVY
B1: the binding entry in [1] is reported as “no binding”; in [2] it was “binds”; in assay [3], “binds”; in assay [4], “binds”; in [5], “binds”; in [6], “binds”. Moreover, the binding entry was “binds” in [7], “binds” in [8], “no binding” in assay [9] and “no binding” in [10].

(Values after article doi:10.1101/2019.12.23.887547.)
